Some of the results follow. This is a noisy data set.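 Tm was set to 64 °C where no melting was found, and many curves are irregular.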

Chains of the proteins cited; added tags and fusions are not shown. Lines headed by an entry give the natural chain unless they say otherwise; changes in a name come on top.
UniProt Q9NR31: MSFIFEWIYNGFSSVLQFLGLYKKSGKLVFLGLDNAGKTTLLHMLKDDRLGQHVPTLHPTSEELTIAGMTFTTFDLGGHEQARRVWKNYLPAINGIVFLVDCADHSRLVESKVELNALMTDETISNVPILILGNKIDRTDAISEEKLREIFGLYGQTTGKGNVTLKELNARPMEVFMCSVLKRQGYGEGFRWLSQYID
UniProt Q9NUJ1: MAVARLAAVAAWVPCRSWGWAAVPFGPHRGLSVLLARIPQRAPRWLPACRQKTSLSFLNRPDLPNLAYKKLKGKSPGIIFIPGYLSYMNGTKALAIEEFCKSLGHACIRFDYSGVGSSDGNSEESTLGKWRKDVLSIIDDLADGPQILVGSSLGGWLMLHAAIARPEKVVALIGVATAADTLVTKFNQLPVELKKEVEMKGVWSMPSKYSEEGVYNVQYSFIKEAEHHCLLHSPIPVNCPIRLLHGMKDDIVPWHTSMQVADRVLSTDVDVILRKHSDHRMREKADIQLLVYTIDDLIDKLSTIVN
UniProt Q9HBU6: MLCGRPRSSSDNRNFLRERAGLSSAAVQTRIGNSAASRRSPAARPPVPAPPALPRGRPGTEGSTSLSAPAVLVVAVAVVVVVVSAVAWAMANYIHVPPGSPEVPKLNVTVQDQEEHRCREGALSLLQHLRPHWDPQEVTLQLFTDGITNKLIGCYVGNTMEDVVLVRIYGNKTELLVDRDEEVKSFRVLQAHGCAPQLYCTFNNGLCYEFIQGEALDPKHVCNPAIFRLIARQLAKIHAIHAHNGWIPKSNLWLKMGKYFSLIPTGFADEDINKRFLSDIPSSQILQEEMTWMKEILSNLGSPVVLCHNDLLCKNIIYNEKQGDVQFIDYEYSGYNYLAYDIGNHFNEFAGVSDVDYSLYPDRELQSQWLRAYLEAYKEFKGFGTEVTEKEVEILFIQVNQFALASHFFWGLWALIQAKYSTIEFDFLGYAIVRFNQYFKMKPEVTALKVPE
UniProt Q9NPI6: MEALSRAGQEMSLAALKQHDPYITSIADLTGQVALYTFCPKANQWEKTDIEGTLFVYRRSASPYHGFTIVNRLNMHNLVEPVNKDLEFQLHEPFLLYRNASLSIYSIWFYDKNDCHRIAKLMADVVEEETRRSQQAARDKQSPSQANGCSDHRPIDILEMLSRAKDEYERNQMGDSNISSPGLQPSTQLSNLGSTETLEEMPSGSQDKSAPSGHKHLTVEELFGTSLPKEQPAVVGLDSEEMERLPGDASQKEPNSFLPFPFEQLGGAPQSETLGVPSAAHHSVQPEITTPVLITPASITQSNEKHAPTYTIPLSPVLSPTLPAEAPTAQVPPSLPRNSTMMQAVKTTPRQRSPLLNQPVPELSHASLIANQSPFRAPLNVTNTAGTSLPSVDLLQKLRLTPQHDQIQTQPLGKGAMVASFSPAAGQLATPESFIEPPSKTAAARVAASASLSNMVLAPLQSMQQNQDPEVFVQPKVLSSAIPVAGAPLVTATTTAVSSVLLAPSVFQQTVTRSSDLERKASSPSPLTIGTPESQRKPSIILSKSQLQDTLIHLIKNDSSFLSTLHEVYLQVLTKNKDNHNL
UniProt Q9NP64: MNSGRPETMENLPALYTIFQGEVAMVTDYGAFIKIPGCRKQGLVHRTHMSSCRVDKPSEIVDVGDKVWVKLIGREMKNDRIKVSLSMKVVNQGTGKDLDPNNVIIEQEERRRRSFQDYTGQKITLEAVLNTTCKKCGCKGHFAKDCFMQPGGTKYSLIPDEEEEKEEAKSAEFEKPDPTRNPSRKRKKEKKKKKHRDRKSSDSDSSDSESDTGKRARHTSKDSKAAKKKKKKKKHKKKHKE
UniProt Q9NT62, whole entry: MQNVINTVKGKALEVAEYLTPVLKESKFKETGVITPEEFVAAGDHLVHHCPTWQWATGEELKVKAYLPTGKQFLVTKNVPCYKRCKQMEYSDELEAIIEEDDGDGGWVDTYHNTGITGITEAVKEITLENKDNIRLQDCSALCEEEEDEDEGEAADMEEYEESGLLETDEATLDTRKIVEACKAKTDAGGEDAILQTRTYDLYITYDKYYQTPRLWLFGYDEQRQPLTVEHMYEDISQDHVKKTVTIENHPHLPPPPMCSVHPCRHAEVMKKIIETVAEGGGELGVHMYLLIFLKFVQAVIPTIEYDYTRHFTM
UniProt Q9NTJ5: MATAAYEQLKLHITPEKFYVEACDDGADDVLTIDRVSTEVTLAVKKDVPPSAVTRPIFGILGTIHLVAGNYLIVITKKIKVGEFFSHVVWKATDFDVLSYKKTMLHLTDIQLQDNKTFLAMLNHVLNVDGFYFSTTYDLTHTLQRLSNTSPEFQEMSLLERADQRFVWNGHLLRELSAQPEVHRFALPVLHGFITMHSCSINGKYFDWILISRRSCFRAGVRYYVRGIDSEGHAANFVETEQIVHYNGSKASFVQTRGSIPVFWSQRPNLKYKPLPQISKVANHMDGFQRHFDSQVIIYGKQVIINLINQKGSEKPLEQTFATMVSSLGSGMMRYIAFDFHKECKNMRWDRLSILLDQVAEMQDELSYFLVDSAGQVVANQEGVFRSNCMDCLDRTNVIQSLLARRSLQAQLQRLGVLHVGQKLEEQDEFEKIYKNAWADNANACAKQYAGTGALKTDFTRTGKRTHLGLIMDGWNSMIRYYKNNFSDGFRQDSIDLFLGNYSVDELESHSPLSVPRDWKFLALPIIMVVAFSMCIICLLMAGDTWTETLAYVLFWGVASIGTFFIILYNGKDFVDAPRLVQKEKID
UniProt Q9NRN7: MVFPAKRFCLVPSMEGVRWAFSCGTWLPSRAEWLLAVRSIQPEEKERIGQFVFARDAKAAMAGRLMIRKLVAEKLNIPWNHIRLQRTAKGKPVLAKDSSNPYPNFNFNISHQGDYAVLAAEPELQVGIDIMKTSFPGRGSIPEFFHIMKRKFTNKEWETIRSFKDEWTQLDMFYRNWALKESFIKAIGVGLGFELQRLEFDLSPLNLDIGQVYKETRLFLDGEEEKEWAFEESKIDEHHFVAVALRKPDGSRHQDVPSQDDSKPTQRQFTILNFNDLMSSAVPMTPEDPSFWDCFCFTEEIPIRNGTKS
UniProt Q9NQZ5: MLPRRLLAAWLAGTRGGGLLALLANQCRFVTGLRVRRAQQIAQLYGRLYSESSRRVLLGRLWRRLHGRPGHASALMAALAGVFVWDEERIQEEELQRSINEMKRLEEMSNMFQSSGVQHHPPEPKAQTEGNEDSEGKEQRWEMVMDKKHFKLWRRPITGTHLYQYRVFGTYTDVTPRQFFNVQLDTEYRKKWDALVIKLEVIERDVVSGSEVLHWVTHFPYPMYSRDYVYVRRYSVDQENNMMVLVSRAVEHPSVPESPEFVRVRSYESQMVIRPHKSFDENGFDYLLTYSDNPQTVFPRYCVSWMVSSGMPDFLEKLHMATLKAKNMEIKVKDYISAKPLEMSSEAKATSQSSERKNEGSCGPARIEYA
UniProt Q9NQX3: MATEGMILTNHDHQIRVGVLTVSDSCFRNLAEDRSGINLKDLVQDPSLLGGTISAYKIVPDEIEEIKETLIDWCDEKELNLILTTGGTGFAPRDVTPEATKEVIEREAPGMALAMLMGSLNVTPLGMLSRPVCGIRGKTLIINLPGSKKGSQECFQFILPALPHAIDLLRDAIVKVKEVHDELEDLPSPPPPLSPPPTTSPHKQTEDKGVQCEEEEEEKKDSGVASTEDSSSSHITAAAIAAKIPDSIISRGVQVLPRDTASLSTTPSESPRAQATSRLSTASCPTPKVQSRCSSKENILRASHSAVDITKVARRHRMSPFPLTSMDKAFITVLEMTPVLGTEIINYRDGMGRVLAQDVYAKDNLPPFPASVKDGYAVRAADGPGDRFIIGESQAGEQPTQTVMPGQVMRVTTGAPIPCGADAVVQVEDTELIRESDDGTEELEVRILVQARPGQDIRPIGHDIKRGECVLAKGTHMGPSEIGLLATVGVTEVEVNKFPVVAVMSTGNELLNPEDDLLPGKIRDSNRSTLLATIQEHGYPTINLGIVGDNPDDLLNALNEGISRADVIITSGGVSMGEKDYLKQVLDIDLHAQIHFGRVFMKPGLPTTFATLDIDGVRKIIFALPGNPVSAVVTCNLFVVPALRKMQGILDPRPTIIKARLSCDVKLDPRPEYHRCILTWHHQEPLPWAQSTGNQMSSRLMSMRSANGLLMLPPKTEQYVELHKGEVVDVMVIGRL
UniProt Q9NTJ3, whole entry: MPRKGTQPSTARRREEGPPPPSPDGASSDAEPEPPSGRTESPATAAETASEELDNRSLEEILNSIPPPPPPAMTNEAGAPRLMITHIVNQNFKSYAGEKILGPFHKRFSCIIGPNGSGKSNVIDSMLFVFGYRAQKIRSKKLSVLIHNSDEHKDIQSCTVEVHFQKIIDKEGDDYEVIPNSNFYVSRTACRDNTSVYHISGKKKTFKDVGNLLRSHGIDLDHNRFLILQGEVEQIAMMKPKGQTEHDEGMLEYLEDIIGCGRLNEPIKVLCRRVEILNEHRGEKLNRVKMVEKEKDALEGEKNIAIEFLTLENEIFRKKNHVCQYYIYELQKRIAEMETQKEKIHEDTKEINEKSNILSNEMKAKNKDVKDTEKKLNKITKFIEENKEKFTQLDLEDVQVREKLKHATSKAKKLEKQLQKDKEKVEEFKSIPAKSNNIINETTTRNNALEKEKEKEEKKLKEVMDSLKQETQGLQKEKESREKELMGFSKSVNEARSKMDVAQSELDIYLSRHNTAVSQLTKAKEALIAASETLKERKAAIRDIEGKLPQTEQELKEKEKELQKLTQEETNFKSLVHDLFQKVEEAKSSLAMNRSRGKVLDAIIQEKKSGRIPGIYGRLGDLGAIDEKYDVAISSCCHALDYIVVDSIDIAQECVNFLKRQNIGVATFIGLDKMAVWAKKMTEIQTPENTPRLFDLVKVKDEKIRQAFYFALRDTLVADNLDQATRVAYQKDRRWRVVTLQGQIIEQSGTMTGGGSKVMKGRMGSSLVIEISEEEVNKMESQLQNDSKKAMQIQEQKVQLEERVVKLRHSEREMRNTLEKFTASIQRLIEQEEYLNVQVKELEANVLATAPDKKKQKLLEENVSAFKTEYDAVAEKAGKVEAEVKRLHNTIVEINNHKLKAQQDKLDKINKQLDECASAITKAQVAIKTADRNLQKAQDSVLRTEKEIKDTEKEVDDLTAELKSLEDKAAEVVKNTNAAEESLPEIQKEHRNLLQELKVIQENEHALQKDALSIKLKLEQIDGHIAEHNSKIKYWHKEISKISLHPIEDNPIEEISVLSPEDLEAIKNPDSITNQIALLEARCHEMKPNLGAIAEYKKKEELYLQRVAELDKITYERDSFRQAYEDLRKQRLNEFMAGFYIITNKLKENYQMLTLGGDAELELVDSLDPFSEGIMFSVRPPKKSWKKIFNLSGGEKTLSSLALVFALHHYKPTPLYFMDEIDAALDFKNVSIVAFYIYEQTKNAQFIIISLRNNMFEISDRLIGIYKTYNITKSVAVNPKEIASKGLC
UniProt Q9NQY0: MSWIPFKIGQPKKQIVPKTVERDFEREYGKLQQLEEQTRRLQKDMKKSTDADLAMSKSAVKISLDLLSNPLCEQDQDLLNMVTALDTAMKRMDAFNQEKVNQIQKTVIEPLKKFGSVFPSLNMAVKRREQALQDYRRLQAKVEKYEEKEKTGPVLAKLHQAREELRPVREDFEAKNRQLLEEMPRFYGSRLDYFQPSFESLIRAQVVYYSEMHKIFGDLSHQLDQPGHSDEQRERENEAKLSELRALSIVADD
UniProt Q9NSI2: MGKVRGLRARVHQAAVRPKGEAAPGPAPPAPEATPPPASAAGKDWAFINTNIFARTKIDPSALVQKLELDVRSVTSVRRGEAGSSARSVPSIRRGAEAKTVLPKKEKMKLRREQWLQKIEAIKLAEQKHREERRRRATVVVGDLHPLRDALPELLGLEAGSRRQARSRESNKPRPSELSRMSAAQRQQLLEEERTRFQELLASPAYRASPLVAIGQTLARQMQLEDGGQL
UniProt Q9NRC1: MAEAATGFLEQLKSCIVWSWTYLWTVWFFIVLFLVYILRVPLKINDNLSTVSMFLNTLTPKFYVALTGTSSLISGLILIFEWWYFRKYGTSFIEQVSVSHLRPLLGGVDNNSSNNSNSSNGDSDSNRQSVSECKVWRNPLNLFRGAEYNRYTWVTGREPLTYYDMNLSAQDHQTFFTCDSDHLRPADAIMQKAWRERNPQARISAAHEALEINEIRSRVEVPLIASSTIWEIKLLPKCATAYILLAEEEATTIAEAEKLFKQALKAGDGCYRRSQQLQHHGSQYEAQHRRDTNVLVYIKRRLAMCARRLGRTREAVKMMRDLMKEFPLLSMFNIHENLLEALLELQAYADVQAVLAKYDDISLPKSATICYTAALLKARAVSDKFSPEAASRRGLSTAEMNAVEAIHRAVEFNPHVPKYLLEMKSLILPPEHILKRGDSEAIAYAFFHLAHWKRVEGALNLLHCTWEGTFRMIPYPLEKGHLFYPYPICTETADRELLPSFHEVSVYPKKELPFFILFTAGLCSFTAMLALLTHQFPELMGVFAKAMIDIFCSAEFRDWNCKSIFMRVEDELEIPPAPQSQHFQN
UniProt Q9NR33: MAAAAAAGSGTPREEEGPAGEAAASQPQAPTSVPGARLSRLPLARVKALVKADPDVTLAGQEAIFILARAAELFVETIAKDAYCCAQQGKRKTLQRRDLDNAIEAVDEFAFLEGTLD

From the supplement of paper PMC12595434, “Development of retinoid nuclear receptor pathway antagonists through targeting aldehyde dehydrogenase 1A3” (iScience, 2025) come the findings set out here.

Compound in one experiment: CCc1cnccc1C(=O)Nc1cc2c(cc1F)NC(=O)CC2
Briefly: melting temperature shift (DMSO Tm minus MBE1-treated Tm) in cellular thermal proteome profiling; higher = less thermal stabilization by MBE1 (negative = stabilized by MBE1). Particulars: A375; MBE1 concentration: 100 nM.
SAR1A (UniProt Q9NR31): the melting temperature shift is 0.154 °C.

Turning to IL1RAP (UniProt Q9NPH3), the melting temperature shift was -0.718 °C.

With ABHD10 (UniProt Q9NUJ1), the melting temperature shift was -1.69 °C.

With ETNK1 (UniProt Q9HBU6), the melting temperature shift was -0.429 °C.

In the case of DCP1A (UniProt Q9NPI6), the melting temperature shift was -1.55 °C.

Take UniProt Q9NP64: the melting temperature shift was -0.352 °C.

On to COPS7B (UniProt Q9H9Q2), for which the melting temperature shift is -0.644 °C.

In the case of UniProt Q9NUD5, the melting temperature shift is -0.311 °C.

Regarding ATG3 (UniProt Q9NT62), the melting temperature shift is -1.07 °C.

As for DDX19A (UniProt Q9NUU7), the melting temperature shift is -0.409 °C.

For SACM1L (UniProt Q9NTJ5), the melting temperature shift was -0.0235 °C.

As to AASDHPPT (UniProt Q9NRN7), the melting temperature shift is -0.315 °C.

For STARD7 (UniProt Q9NQZ5), the melting temperature shift stood at 0.749 °C.

Take PNPLA8 (UniProt Q9NP80): the melting temperature shift was found to be 0.376 °C.

For GPHN (UniProt Q9NQX3), the melting temperature shift was -2.18 °C.

With HMG20A (UniProt Q9NP66), the melting temperature shift was -0.14 °C.

With GRPEL1 (UniProt Q9HAV7), the melting temperature shift is -0.248 °C.

Turning to UniProt Q9NTJ4, the melting temperature shift is -1.66 °C.

With SMC4 (UniProt Q9NTJ3), the melting temperature shift is 0.232 °C.

Regarding BIN3 (UniProt Q9NQY0), the melting temperature shift was -1.33 °C.

For PHPT1 (UniProt Q9NRX4), the melting temperature shift was -0.0201 °C.

Consider ACOT13 (UniProt Q9NPJ3), for which the melting temperature shift is -1.58 °C.

Turning to WDR41 (UniProt Q9HAD4), the melting temperature shift was -1.06 °C.

With TM7SF3 (UniProt Q9NS93), the melting temperature shift is -1.3 °C.

With HINT3 (UniProt Q9NQE9), the melting temperature shift is 1.4 °C.

As to UniProt Q9H9Y2, the melting temperature shift came to 0.0977 °C.

UniProt Q9NPH0: the melting temperature shift is -0.677 °C.

For VEZT (UniProt Q9HBM0), the melting temperature shift was found to be 0.443 °C.

In the case of LRRC40 (UniProt Q9H9A6), the melting temperature shift is -0.955 °C.

For the target FAM114A2 (UniProt Q9NRY5), the melting temperature shift is -0.0305 °C.

Turning to FAM207A (UniProt Q9NSI2), the melting temperature shift is -1.38 °C.

Consider MED4 (UniProt Q9NPJ6), for which the melting temperature shift was -0.719 °C.

For the target ST7 (UniProt Q9NRC1), the melting temperature shift is -1.56 °C.

In the case of OLA1 (UniProt Q9NTK5), the melting temperature shift is -0.11 °C.

POLE4 (UniProt Q9NR33): the melting temperature shift is 0.812 °C.

For the target UniProt Q9HA92, the melting temperature shift stood at 0.729 °C.

Regarding EXOSC3 (UniProt Q9NQT5), the melting temperature shift was 0.0488 °C.

Still in this experiment, the particulars now being: A375; MBE1 concentration: 1 uM.
Take SAR1A (UniProt Q9NR31): the melting temperature shift was found to be 0.00671 °C.

With IL1RAP (UniProt Q9NPH3), the melting temperature shift was 1.46 °C.

ABHD10 (UniProt Q9NUJ1): the melting temperature shift is -1.27 °C.

In the case of ETNK1 (UniProt Q9HBU6), the melting temperature shift is -0.0671 °C.

Turning to DCP1A (UniProt Q9NPI6), the melting temperature shift was -1.19 °C.

As to UniProt Q9NP64, the melting temperature shift was -0.224 °C.

Consider COPS7B (UniProt Q9H9Q2), for which the melting temperature shift turned out to be 0.523 °C.

Regarding UniProt Q9NUD5, the melting temperature shift is -0.763 °C.

Consider ATG3 (UniProt Q9NT62), for which the melting temperature shift is 0.235 °C.

Take DDX19A (UniProt Q9NUU7): the melting temperature shift is -0.928 °C.

On to SACM1L (UniProt Q9NTJ5), for which the melting temperature shift is -0.16 °C.

For AASDHPPT (UniProt Q9NRN7), the melting temperature shift is 0.263 °C.

With STARD7 (UniProt Q9NQZ5), the melting temperature shift worked out at 0.335 °C.

PNPLA8 (UniProt Q9NP80): the melting temperature shift is -0.235 °C.

As for GPHN (UniProt Q9NQX3), the melting temperature shift was -1.1 °C.

As for HMG20A (UniProt Q9NP66), the melting temperature shift was 0.446 °C.

As to GRPEL1 (UniProt Q9HAV7), the melting temperature shift was -0.171 °C.

As for UniProt Q9NTJ4, the melting temperature shift came out at 0.313 °C.

Turning to SMC4 (UniProt Q9NTJ3), the melting temperature shift was 0.104 °C.

Take BIN3 (UniProt Q9NQY0): the melting temperature shift was -0.365 °C.

For PHPT1 (UniProt Q9NRX4), the melting temperature shift was 0.0183 °C.

In the case of ACOT13 (UniProt Q9NPJ3), the melting temperature shift is -0.138 °C.

In the case of WDR41 (UniProt Q9HAD4), the melting temperature shift was determined as 0.389 °C.

As to TM7SF3 (UniProt Q9NS93), the melting temperature shift was -0.559 °C.

On to HINT3 (UniProt Q9NQE9), for which the melting temperature shift was -0.282 °C.

As to UniProt Q9H9Y2, the melting temperature shift amounted to 0.641 °C.

Turning to UniProt Q9NPH0, the melting temperature shift was -0.0671 °C.

With VEZT (UniProt Q9HBM0), the melting temperature shift was determined as 0.348 °C.

For the target LRRC40 (UniProt Q9H9A6), the melting temperature shift was -0.386 °C.

Consider FAM114A2 (UniProt Q9NRY5), for which the melting temperature shift stood at 0.58 °C.

As for FAM207A (UniProt Q9NSI2), the melting temperature shift was -0.232 °C.

Consider MED4 (UniProt Q9NPJ6), for which the melting temperature shift was 0.427 °C.

ST7 (UniProt Q9NRC1): the melting temperature shift amounted to 0.322 °C.

For OLA1 (UniProt Q9NTK5), the melting temperature shift came out at 0.153 °C.

As for POLE4 (UniProt Q9NR33), the melting temperature shift stood at 0.434 °C.

Take UniProt Q9HA92: the melting temperature shift is 1.87 °C.

With EXOSC3 (UniProt Q9NQT5), the melting temperature shift is 0.202 °C.
